# Test results published in PubChem BioAssay AID1117359 (Southern Research Institute, 2015).
# Tested on: THP-1 viability, CellTiter-Glo luminescence, 72 h
# Test: THP-1 cell cytotoxicity, dose response, cytotoxicity control for Vif-APOBEC3G degradation inhibitor project, THP-1 cells (AID 1117359)
smiles,measurement,value
Cc1c2cc(O)c(=O)cc-2oc2cc(O)c(O)cc12,CC50,18.6 µM
